Experimental findings from PubChem BioAssay AID493027 (The Scripps Research Institute Molecular Screening Center, 2011) are described below.

Chains of the proteins cited; added tags and fusions are not shown. Lines headed by an entry give the natural chain unless they say otherwise; changes in a name come on top.
UniProt O60240: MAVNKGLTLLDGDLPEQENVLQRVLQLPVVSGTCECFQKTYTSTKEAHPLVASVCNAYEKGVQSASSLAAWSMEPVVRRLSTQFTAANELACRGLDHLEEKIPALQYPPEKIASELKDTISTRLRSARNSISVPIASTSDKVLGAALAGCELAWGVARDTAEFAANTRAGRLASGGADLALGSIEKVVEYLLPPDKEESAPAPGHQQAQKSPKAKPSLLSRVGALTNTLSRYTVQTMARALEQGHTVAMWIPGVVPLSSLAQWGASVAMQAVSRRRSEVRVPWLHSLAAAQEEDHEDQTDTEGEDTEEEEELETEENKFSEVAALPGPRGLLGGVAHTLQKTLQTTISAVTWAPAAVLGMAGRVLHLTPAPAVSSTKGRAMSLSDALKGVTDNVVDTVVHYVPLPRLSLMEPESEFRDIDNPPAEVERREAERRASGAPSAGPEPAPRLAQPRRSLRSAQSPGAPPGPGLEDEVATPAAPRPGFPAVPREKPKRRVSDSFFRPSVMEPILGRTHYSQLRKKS
UniProt Q8WTS1: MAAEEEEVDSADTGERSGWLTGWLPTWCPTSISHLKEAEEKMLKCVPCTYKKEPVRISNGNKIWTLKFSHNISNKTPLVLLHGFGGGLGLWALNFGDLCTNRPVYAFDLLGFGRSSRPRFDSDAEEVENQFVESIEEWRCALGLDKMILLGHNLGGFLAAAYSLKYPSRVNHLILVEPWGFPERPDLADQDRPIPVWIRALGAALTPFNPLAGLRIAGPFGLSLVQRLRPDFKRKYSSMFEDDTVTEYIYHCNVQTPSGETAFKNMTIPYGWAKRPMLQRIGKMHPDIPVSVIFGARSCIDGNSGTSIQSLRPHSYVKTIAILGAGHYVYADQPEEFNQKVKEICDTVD

Among all 2,000 compounds or so, about 45 (2%) were called active.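 How the source made its calls: active means inhibition above the screen-wide mean inhibition plus 3 SD (cut at about 44% in these data); inactive means the rest.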 Some of the results follow.

The target of the assay is Perilipin-1 (Homo sapiens) + 1-acylglycerol-3-phosphate O-acyltransferase ABHD5 (Homo sapiens) (UniProt O60240+Q8WTS1). Put plainly: ABHD5-PLIN1 interaction inhibitors, pilot screen, cell lysate, split luciferase complementation, luminescence, NIH validation set (AID 493027).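 Further: 0% = DMSO wells with the 100% control not disclosed.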 To be noted: split G. princeps luciferase complementation, 4 h; at 7.9 µM, stronger effect = higher value.
With `CCOC(=O)C1C(=O)CC(C)(O)C(C(=O)OCC)C1/C=C/c1ccccc1` (centres undefined), the inhibition is inactive: -9.39%.

In the case of `CCc1cn([C@H]2C[C@H](O)[C@@H](CO)O2)c(=O)[nH]c1=O`, the inhibition was inactive: 0.55%.

On to `CSCCC(NC(=O)/C(=C/c1ccc2c(c1)OCO2)NC(=O)c1cccc([N+](=O)[O-])c1)C(=O)O` (centres undefined), for which the inhibition is inactive: -3.68%.

In the case of `CN1CCc2c(n(CC(O)CN(CCO)CCO)c3ccccc23)C1=O` (centres undefined), the inhibition is inactive: -3.39%.

On to `O=[N+]([O-])c1cccc2cn[nH]c12`, for which the inhibition was inactive: -5.14%.

For `COc1cccc(NC(=O)C2CC(=O)OC23CCOC(C)(C)C3)c1` (centres undefined), the inhibition is inactive: -4.43%.

`CC12CCC(C(=O)NCc3ccccn3)(OC1=O)C2(C)C` (centres undefined): the inhibition is inactive: -6.54%.

Turning to `COC(=O)c1ccc(-c2ncc(-c3cccc4ccccc34)o2)cc1`, the inhibition is inactive: -3.27%.

In the case of `CCCNCC(O)COc1ccccc1C(=O)CCc1ccccc1` (centres undefined), the inhibition is inactive: -5.56%.

Regarding `O=C(Nc1ccccc1C(=O)N1CCCCCC1)c1ccccc1Cl`, the inhibition is inactive: -4.72%.

Turning to `O=C1[C@@H]2[C@H](Cc3ccc(O)cc3)N[C@]3(C(=O)Nc4ccccc43)[C@@H]2C(=O)N1c1ccc(F)cc1`, the inhibition was inactive: 5.81%.

For `CCOC(=O)N1CCN(Cc2nc(Cc3cccc(F)c3)no2)CC1`, the inhibition was inactive: -1.53%.

As to `COc1ccc(NC(=O)Nc2ccc(C(C)C)cc2)cc1`, the inhibition is inactive: -6.28%.

With `C[C@H]1C[C@@H]2[C@H]([C@@H](O)C[C@@]3(C)[C@H]2CC[C@]3(O)C(=O)CO)[C@@]2(C)C=CC(=O)C=C12`, the inhibition is inactive: -5.34%.

As to `O=C(O)c1cc(-c2ccccc2)nc2ccccc12`, the inhibition is inactive: -6.78%.

As for `CC(=O)O[C@]1(C(C)=O)CC[C@H]2[C@@H]3C[C@H](C)C4=CC(=O)CC[C@]4(C)[C@H]3CC[C@@]21C`, the inhibition is inactive: 3.35%.

Take `Nc1ccc2[nH]ncc2c1`: the inhibition is inactive: -13.3%.

For `Cc1ccc(S(=O)(=O)N2CCC(C(=O)N[C@@H](C)C(=O)NC3CCS(=O)(=O)C3)CC2)cc1` (some centres undefined), the inhibition was inactive: -6.84%.

As for `NNC(=O)c1cc(O)c(O)c(O)c1`, the inhibition is inactive: -7.59%.

As for `Cc1ccc2nc(C)c3c(c2c1)OC(C(C)(Cl)Br)C3` (centres undefined), the inhibition was inactive: -8.65%.

As to `CN(C)c1nc(N(C)C)nc(N(C)C)n1`, the inhibition is inactive: -8.07%.

For `O=C(CCc1c[nH]c2ccccc12)NCc1ccco1`, the inhibition was inactive: 4.96%.

As for `COC(=O)CSc1nc2ccc(N)cc2s1`, the inhibition was inactive: -12.6%.

As to `COc1ccc(NC(=O)C2CSC3c4ccccc4C(=O)N23)cc1` (centres undefined), the inhibition was inactive: 2.85%.

Regarding `CCN(CCCCCN(C)C)Cc1cc2ccccc2o1`, the inhibition is inactive: -7.75%.

`COc1ccc(CCN(C)CC(=O)Nc2cc(C)nc3ccccc23)cc1OC`: the inhibition was inactive: 3.27%.

As for `O=C1OCCN1/N=C/c1ccc([N+](=O)[O-])o1`, the inhibition was inactive: -2.79%.

Turning to `COc1ccc(NC2=C(Cl)C(=O)N(c3ccccc3)C2=O)c(OC)c1`, the inhibition was inactive: 0.22%.

For the compound `CCC(=O)O[C@]1(C(=O)CCl)[C@@H](C)C[C@H]2[C@@H]3CCC4=CC(=O)C=C[C@]4(C)[C@@]3(F)[C@@H](O)C[C@@]21C`, the inhibition is inactive: -6.31%.

On to `Cc1ccc(C(=O)N2CC3(C(C)C)CN(C(=O)c4ccc(C)cc4)CC(C(C)C)(C2)C3=O)cc1`, for which the inhibition was inactive: -7.75%.

As to `CCOc1cccc(N2C(=O)CC(N(CCc3ccc(OC)c(OC)c3)C(=O)CC)C2=O)c1` (centres undefined), the inhibition is inactive: -6.24%.

`CN(C)CC/C=C1\c2ccccc2Sc2ccc(Cl)cc21`: the inhibition was inactive: 3.88%.

For the compound `Cc1c(O)c(=O)ccn1C`, the inhibition was inactive: -3.99%.

As to `N#Cc1c2c(c(-c3ccccc3)[nH]c1=O)CCCC2`, the inhibition was inactive: -0.9%.

For `Cc1nc(-c2coc3c(CN(C)C)c(O)ccc3c2=O)cs1`, the inhibition was inactive: -0.69%.

As for `CC(C)c1ccc(/C=C/C(=O)O)cc1`, the inhibition is inactive: -6.65%.

As to `COc1cccc2c(=O)c(C/C=C(/C)Cl)c(C)[nH]c12`, the inhibition is inactive: 2.34%.

Regarding `COc1ccc(C2CNC(=O)C2)cc1OC1CCCC1` (centres undefined), the inhibition is inactive: -10.7%.

For `COc1ccc(-c2noc(-c3ccccc3-c3ccccc3)n2)cc1`, the inhibition was inactive: -4.82%.

For `COC(=O)c1[nH]c2ccc(C)cc2c1NC(=O)CN1CCc2cc(OC)c(OC)cc2C1`, the inhibition is inactive: 10.7%.

As for `COc1ccc(-c2[nH]ncc2C=O)cc1OC`, the inhibition was inactive: 2.4%.

On to `O=C(Nc1ncc2c(n1)CC(c1ccco1)CC2=O)c1ccco1` (centres undefined), for which the inhibition is inactive: -2.98%.

As to `Cc1nc(NC(CC(C)C)C(=O)O)c2nc(C)oc2n1` (centres undefined), the inhibition was inactive: -9.74%.

`Cn1cc(CN2CCN(CCO)CC2)c(-c2ccc(Oc3ccccc3)cc2)n1`: the inhibition is inactive: 2.98%.

As to `O=C(/C=C/c1ccccc1)c1ccccc1`, the inhibition is active: 61.4%.

On to `CCN1CCN(C(=S)c2ccc(OC)cc2)CC1`, for which the inhibition is inactive: -5.37%.

`O=C1Cc2ccccc2C(c2ccccc2)N1` (centres undefined): the inhibition is inactive: -1.55%.

Take `O=C(COc1ccc(F)cc1)OCCN1CCOCC1`: the inhibition was inactive: -9.55%.

As for `CCN(CC)CC#CCOC(=O)C(O)(c1ccccc1)C1CCCCC1` (centres undefined), the inhibition is inactive: -7.62%.

As to `Cc1ncc([N+](=O)[O-])n1CCO`, the inhibition was inactive: -5.5%.

For `O=C(O)c1ccc(C(=O)C(=O)c2ccccc2)cc1`, the inhibition was inactive: -8.11%.

Regarding `COc1ccc(CCN2CCC(Nc3nc4ccccc4n3Cc3ccc(F)cc3)CC2)cc1`, the inhibition was inactive: -8.19%.

Turning to `O=C1CC[C@@H](CN(Cc2ccccc2)Cc2cn[nH]c2-c2cc3ccccc3o2)N1`, the inhibition is inactive: 16.7%.

On to `CCc1cc2c(=O)c(-c3nc(C)cs3)coc2cc1OC(C)C(=O)NCCO` (centres undefined), for which the inhibition is inactive: -3.43%.

Turning to `C=CCn1c(SCC(=O)NC2CCCCC2)nc2ccccc2c1=O`, the inhibition was inactive: -4.35%.

On to `CN/C(=C/[N+](=O)[O-])NCCSCc1ccc(CN(C)C)o1`, for which the inhibition is inactive: -16.8%.

For the compound `O=C(CCCN1CC=C(n2c(=O)[nH]c3ccccc32)CC1)c1ccc(F)cc1`, the inhibition is inactive: -3.84%.

On to `COc1cc2oc(-c3ccc(O)cc3)cc(=O)c2c(OC)c1O`, for which the inhibition was inactive: 6.44%.

In the case of `CCN(CC)CCNC(=O)c1cc(S(C)(=O)=O)ccc1OC`, the inhibition is inactive: 0.44%.

On to `COc1ccc2oc(=O)c(C(=O)Nc3ccccc3-c3ccccc3)cc2c1`, for which the inhibition was inactive: -7.96%.

For `O=C(O)c1ccccc1OCCOc1ccccc1`, the inhibition was inactive: -4.07%.

As for `CCn1cc(C(=O)O)c(=O)c2ccc(C)nc21`, the inhibition was inactive: -9.27%.

Regarding `CC(=O)N(CCC(Cc1ccccc1)c1ccc2c(c1)OCO2)Cc1ccc(Cl)cc1` (centres undefined), the inhibition is inactive: 5.7%.

For the compound `COc1ccc2cc(CCC(C)=O)ccc2c1`, the inhibition is inactive: -4.36%.

Consider `O=c1c2ccccc2nnn1Cc1cccc2ccccc12`, for which the inhibition is inactive: 7.22%.

Regarding `C#CCN(C)Cc1ccccc1`, the inhibition is inactive: -12.8%.

`O=C(O)C1[C@H]2C(=O)N(C3CCCC3)C[C@]23C=C[C@H]1O3` (some centres undefined): the inhibition is inactive: -11%.

For the compound `CC(=O)N1CC23C=CC(CC2CC12CCCCCC2)O3` (centres undefined), the inhibition was inactive: -6.35%.

Turning to `CC(=O)Oc1ccc(C2OC(=O)c3ccccc3N2C(C)=O)cc1` (centres undefined), the inhibition was inactive: 10.1%.

Take `COc1ccc(OC)c(-n2c(Cn3c(-c4ccccn4)nc4ccccc43)n[nH]c2=S)c1`: the inhibition is inactive: -10.2%.

For `CC(C)(C)OC(=O)NCCC(=O)Oc1ccc2ccc(=O)oc2c1`, the inhibition is inactive: -5.12%.

In the case of `CCc1cc2c(=O)c(-c3nc4ccccc4n3C)coc2c(CN2CCN(C)CC2)c1O`, the inhibition is inactive: -2.41%.

In the case of `COc1cc2nc(N3CCN(C(=O)c4ccco4)CC3)nc(N)c2cc1OC`, the inhibition was inactive: -3.7%.

Consider `COc1ccc2c(c1O)Cc1ccccc1C2=O`, for which the inhibition is inactive: 12%.

With `CC1CCCc2sc3ncn(N)c(=N)c3c21` (centres undefined), the inhibition was inactive: -6.87%.

As for `O=c1oc2c(CN3CCCCC3)c(O)ccc2c2c1CCCCC2`, the inhibition is inactive: 2.7%.

Take `CC(=O)[C@@H]1[C@@H](C(=O)c2ccc(C)cc2)[C@]2(C(=O)Nc3ccccc32)[C@H]2C=Cc3cc(F)ccc3N12`: the inhibition was inactive: 7.6%.

As to `COC(=O)c1ccc(C(=O)OC)c(NC(=O)C(C)C)c1`, the inhibition was inactive: -14.8%.

For `COCc1cc(=O)[nH]c(Nc2nc3ccccc3o2)n1`, the inhibition is inactive: -0.24%.

Consider `O=C(c1cccnc1)N1N=C(C2CC2)CC1(O)C(F)(F)F` (centres undefined), for which the inhibition is inactive: -0.45%.

In the case of `COC(=O)C1=C(C)N(C)C(=S)NC1c1ccc(Cl)cc1` (centres undefined), the inhibition was inactive: -2.33%.

For `OCCN1CCN(CCCN2c3ccccc3Sc3ccc(Cl)cc32)CC1`, the inhibition is inactive: 6.03%.

With `CCn1c(O)c(/C=C2\C=Nc3ccccc32)sc1=O`, the inhibition is inactive: 9.02%.

Take `Nc1ccc(S(=O)(=O)c2ccc(N)cc2)cc1`: the inhibition is inactive: -14.4%.

With `O=C(O)c1ccccc1C(=O)OCCCCOC(=O)c1ccccc1C(=O)O`, the inhibition was inactive: -3.61%.

As for `CC(=O)OCC#CCSc1nc2ccccc2n1C`, the inhibition was inactive: -4.07%.

As for `CCCC(=O)O[C@]1(C(=O)COC(C)=O)CC[C@H]2[C@@H]3C[C@H](F)C4=CC(=O)C=C[C@]4(C)[C@@]3(F)[C@@H](O)C[C@@]21C`, the inhibition was inactive: 11.5%.

In the case of `Cn1nnnc1SCC1=C(C(=O)O)N2C(=O)[C@@H](NC(=O)[C@H](O)c3ccccc3)[C@H]2SC1`, the inhibition was inactive: 2.92%.

Take `O=C(NNC(=O)c1cccs1)c1ccco1`: the inhibition is inactive: -10.1%.

Take `CC(=O)Nc1ccc2[nH]c(C)c(CC=C(Cl)Cl)c(=O)c2c1`: the inhibition is inactive: -6.23%.

`O=c1cc(-c2ccccc2)oc2cc(OCc3ccccc3)cc(O)c12`: the inhibition was inactive: -12.7%.

Regarding `C/C(=N\N=C1\NC(=O)C(CC(=O)Nc2ccc(Cl)cc2)S1)c1ccco1` (centres undefined), the inhibition is inactive: 11.1%.

Consider `O=C(COc1ccc2c(-c3ccccc3)cc(=O)oc2c1)NCc1cccs1`, for which the inhibition is inactive: 5.17%.

With `CCN1CCN(C(=O)N[C@@H](C(=O)N[C@@H]2C(=O)N3[C@@H]2SC(C)(C)[C@@H]3C(=O)O)c2ccccc2)C(=O)C1=O`, the inhibition was inactive: -2.98%.

By inhibition is commonly meant the change of the read-out against control, counted positive when it falls.
